This assay concerns the target T1, Flag-Foxd4l1.1 (Xenopus) (UniProt Q9PRJ8).
T1 sequence: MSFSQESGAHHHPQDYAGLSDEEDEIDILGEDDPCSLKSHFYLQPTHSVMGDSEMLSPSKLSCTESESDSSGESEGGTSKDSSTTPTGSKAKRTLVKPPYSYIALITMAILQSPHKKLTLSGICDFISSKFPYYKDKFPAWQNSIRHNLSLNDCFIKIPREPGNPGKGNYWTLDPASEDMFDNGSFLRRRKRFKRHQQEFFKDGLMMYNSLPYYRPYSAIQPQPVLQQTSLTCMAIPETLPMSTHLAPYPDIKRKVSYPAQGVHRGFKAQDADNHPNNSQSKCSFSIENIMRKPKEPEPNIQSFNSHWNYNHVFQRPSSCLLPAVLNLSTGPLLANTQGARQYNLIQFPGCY
Briefly: co-IP; Xenopus embryos co-injected with Flag-foxd4l1.1 and HA-smad2/HA-smad3 (wild type or truncated) mRNA at the one-cell stage, harvested at stage 10.5 or 11; cleared lysates incubated overnight at 4 °C with anti-Flag, protein A/G beads; Western blot with anti-HA.

Results are given in words; binding and its absence hold for the method and conditions named. In cells and extracts the contact can be indirect. Sequences can lack the tags named with a protein.

On to “HA-Smad2-ΔC (human) (domain or fragment)”, for which the binding entry is recorded as “no binding”.

For the substance “HA-Smad3-ΔC (human) (domain or fragment)”, the binding entry was “no binding”.

Values taken from publication PMC8534798.
